Patent US20240390316A1, “USE OF DOXEPIN HYDROCHLORIDE IN PREPARATION OF ANTIVIRAL DRUG” (SHENZHEN TECHNOLOGY UNIVERSITY, priority 2022, published 2024)
Structures can show the parent of a compound that is named as a salt.

Columns and labels:
CVB1 = experiment: microbe, parasite or virus in culture
Description: 72 hours later, the degree of a cytopathic effect was detected by an AlamarBlue fluorescent reagent, and an inhibition rate was calculated by using a formula.

CVB2 [1] = system: CVB2
CVB3 [2] = system: CVB3
CVB2 [3] = experiment: microbe, parasite or virus in culture; settings: Enterovirus B, CVB2, Vero, read-out: IC50 (50% inhibitory concentration)
CVB3 [4] = experiment: microbe, parasite or virus in culture; settings: Enterovirus B, CVB3, Vero, read-out: IC50 (50% inhibitory concentration)

CN(C)CCC=C1c2ccccc2COc2ccccc21 [doxepin hydrochloride]
SI (selectivity index, ratio of CC50 to IC50) (CVB1; CVB1): 8.96
IC50 (CVB1; Enterovirus B, CVB1, Vero, read-out: IC50 (50% inhibitory concentration)): 10.1 ± 0.85 µM
SI (selectivity index, ratio of CC50 to IC50) (CVB2 [1]): 4.57
SI (selectivity index, ratio of CC50 to IC50) (CVB3 [2]): 4.46
IC50 (CVB2 [3]): 19.8 ± 8.78 µM
IC50 (CVB3 [4]): 20.3 ± 5.7 µM
